The values that follow are results of earlier work, collected in patent US8933028B2, “Use of selective estrogen receptor modulator for joint fusion and other repair or healing of connective tissue” (priority 2010, dated 2015).

The test system of this data set is bone. The note with it: postmenopausal women with low bone density; cited from earlier work.

Molecules are shown by their SMILES.

As for `NCCCC(O)(P(=O)(O)O)P(=O)(O)O` [alendonate], the “bone density and bone turnover comparing to raloxifene” value was “high bone density and lower bone turnover”.
